Laboratory results as given in PMC9066097.
These are yes or no findings as the source states them, for the method shown. Binding seen in cells or lysates may run through a third protein. Binding calls can cover weak binding; strength is not graded here.

Chains of the proteins cited; added tags and fusions are not shown. Lines headed by an entry give the natural chain unless they say otherwise; changes in a name come on top.
UniProt Q13263: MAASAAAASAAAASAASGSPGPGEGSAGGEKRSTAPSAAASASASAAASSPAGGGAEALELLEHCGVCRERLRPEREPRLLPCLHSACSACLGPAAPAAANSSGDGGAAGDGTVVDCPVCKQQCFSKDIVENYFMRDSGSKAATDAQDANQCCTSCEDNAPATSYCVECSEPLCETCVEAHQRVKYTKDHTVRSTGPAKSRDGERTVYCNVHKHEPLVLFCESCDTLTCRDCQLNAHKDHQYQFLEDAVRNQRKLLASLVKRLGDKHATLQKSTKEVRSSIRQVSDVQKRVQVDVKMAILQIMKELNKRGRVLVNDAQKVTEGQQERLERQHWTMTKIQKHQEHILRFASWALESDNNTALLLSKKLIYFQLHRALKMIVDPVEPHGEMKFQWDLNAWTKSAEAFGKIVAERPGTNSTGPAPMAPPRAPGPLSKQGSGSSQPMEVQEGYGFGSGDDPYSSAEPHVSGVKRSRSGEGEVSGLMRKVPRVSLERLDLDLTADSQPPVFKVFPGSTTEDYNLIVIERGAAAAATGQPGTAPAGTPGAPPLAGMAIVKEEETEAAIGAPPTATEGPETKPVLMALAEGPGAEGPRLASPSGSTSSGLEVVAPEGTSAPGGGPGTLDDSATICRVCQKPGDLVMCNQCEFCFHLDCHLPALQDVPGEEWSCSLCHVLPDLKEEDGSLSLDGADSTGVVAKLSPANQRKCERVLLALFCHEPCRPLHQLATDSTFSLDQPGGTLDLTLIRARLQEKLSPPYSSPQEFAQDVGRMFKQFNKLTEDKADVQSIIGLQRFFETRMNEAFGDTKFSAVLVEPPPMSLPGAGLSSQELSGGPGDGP
UniProt Q96EB6: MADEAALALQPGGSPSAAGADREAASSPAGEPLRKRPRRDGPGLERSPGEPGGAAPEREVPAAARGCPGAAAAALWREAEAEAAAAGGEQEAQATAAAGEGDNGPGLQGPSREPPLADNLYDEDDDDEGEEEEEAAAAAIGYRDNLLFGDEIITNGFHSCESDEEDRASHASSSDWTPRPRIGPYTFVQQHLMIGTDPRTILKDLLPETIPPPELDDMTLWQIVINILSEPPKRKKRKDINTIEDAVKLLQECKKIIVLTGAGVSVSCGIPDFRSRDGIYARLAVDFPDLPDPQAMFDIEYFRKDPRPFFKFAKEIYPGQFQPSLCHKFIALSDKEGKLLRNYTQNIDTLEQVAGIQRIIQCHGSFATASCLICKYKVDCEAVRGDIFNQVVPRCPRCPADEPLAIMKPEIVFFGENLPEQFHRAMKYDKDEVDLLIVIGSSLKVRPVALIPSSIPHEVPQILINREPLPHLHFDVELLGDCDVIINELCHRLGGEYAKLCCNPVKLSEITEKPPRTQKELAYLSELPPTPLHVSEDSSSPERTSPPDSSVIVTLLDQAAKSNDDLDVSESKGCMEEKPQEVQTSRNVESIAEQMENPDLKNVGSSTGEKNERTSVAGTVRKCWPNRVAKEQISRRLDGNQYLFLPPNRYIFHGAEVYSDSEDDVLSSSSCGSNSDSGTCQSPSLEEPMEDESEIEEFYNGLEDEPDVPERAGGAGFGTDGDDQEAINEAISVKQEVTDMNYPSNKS

Target: FLAG-TRIM28 (UniProt Q13263)
Test: co-IP; anti-FLAG agarose IP from lysates of HeLa cells co-transfected with EGFP-SIRT1 forms and FLAG-TRIM28 for 24 h; western blot

binding: binds
Substance: EGFP-SIRT1^ΔC703 (from UniProt Q96EB6) (domain or fragment)
